Among the data in PMC10617771 are binding values, retold here.

The experiment concerns the target T1, Myc-DUSP8 of the anti-myc immunocomplexes used for mass spectrometry (mouse) (UniProt O09112).
T1 sequence: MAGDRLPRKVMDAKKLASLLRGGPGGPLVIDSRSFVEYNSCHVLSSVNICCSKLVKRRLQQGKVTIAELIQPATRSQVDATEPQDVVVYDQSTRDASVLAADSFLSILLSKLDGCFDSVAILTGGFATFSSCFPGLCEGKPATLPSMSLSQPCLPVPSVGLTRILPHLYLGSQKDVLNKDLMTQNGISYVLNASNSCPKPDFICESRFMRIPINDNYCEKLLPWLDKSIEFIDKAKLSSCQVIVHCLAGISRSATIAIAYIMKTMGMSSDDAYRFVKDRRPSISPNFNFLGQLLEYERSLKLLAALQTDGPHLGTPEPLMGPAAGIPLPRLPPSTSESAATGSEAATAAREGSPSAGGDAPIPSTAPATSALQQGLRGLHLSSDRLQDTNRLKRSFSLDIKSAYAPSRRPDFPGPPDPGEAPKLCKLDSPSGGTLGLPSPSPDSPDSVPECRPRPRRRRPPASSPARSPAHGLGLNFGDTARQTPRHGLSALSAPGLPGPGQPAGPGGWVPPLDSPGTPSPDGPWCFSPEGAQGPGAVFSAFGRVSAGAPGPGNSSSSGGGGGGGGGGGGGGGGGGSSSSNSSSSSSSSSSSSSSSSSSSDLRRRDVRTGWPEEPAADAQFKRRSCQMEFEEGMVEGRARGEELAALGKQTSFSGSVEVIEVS
Nature of the experiment: affinity purification with mass spectrometry; anti-myc (DUSP8) immunocomplexes digested with trypsin, LC-MS/MS (LTQ-Orbitrap Elite); cells not given.

No constants are given. Whether binding was seen depends on the method and setting. Binding seen in cells or lysates may run through a third protein. Here binding means that the protein was enriched with, or labelled near, the bait; the list need not be complete. Sequences can lack the tags named with a protein.

B1: Pur-α found in the DUSP8 immunocomplexes (protein, UniProt Q00577 1-322)
chain: MADRDSGSEQGGAALGSGGSLGHPGSGSGSGGGGGGGGGGGGSGGGGGGAPGGLQHETQELASKRVDIQNKRFYLDVKQNAKGRFLKIAEVGAGGNKSRLTLSMSVAVEFRDYLGDFIEHYAQLGPSQPPDLAQAQDEPRRALKSEFLVRENRKYYMDLKENQRGRFLRIRQTVNRGPGLGSTQGQTIALPAQGLIEFRDALAKLIDDYGVEEEPAELPEGTSLTVDNKRFFFDVGSNKYGVFMRVSEVKPTYRNSITVPYKVWAKFGHTFCKYSEEMKKIQEKQREKRAACEQLHQQQQQQQEETAAATLLLQGEEEGEED
As to B1, the binding entry is “binds”.
